No constants are given. Whether binding was seen depends on the method and setting. In cells and extracts the contact can be indirect. Some binding calls cover weakened binding; strength is not graded here.

The test concerns the target T1, microfibril associated protein 5 (MFAP5) (mouse (endogenous in ImdyCAFs)) (UniProt Q9QZJ6).
T1 sequence: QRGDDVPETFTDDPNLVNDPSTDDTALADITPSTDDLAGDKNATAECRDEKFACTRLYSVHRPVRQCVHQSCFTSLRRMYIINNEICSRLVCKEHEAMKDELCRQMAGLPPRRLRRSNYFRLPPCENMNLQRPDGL
The test can be described thus: co-IP; immunoprecipitation from ImdyCAFs followed by western blot; which protein was precipitated is not told.

B1: Reticulocalbin 2 (RCN2) (protein, UniProt Q8BP92 26-320)
chain: SKAEELHYPQGEHRADYDREALLGVQEDVDEYVKLGHEEQQRRLQSIIKKIDSDSDGFLTENELSQWIQMSFKHYAMQEAKQQFVEYDKNSDGAVTWDEYNIQMYDRVIDFDENTALDDTEEGSFRQLHLKDKKRFEKANQDSGPGLSLEEFIAFEHPEEVDYMTEFVIQEALEEHDKNGDGFVSLEEFLGDYRRDPTANEDPEWILVEKDRFVNDYDKDNDGRLDPQELLSWVVPNNQGIAQEEALHLIDEMDLNSDKKLSEEEILENQDLFLTSEATDYGRQLHDDYFYHDEL
Take B1: the binding result was “binds”.

For the origin of these results see publication PMC10275759.
